The results in this text go back to US12247246B2, “Identification of inhibitors of TcpC and TIR NADase activity” (Washington University, priority 2017, dated 2025).

Amino acid sequences for entries named in this document (tags omitted). Residues count along the entry.
UniProt A0A0H2V8B5, 169-303 limits assumed: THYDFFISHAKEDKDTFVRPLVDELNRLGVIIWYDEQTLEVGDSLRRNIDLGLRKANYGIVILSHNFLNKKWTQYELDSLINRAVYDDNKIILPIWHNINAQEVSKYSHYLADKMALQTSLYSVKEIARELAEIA

In the experiment the target is TcpC TIR (Escherichia coli O6:H1, UniProt A0A0H2V8B5). Type of experiment: biochemical, uropathogenic Escherichia coli. As to conditions: Pharmakon library screen, 25 μM compound, 10 μM NAD, 37° C. 60 min; hits retested for dose dependent inhibition. As to the method: NRK1-HEK293T cells were seeded onto 150 cm2 plates at 20×10^6 cells per plate. […] Forty-eight hours after transfection, cells were harvested, pelleted by centrifugation at 1,000 rpm (Sorvall ST 16R centrifuge, Thermo Fisher), and washed once with cold PBS (0.01 M phosphate buffered saline NaCl 0.138 M; KCl 0.0027 M; pH 7.4). The cells were resuspended in PBS with protease inhibitors (Complete protease inhibitor cocktail, Roche product #11873580001) and cell lysates were prepared by sonication (Branson Sonifer 450, output=3, 20 episodes of stroke). […] Protein concentration was determined by the Bicinchoninic (BCA) method and used to normalize lysate concentrations.
The reaction was incubated at 37° C. for 60 min, and then stopped by addition of 180 μl of 0.55 M perchloric acid (HClO4) and placed on ice. After 10 min on ice, the reaction plates were centrifuged for 10 min at 4,000 rpm (Sorvall ST 16R centrifuge). The supernatant (120 μl) was transferred to a new plate and 10 μl of 3M K2CO3 was added to neutralize the solution. Precipitated salts were removed by centrifugation 10 min at 4,000 rpm (Sorvall ST 16R centrifuge). […] This ratio was compared to the ratio generated in the absence of compound inhibitors.
Positive hits were individually purchased from Sigma and tested its dose dependent inhibition in conditions described above. […]

As to `CCCCCCCCCCCCCCCC[n+]1ccccc1` [cetylpyridium, Cetylpyridinium], the “inhibitor of TcpC TIR NADase activity (screen hit, NAD/ADPR ratio >2)” value was “inhibitors”.
